At least one compound was matched to its structure with a doubt left.
Test system: ALL
Conditions: cells from relapsed patients compared with untreated patients

## C[C@@H]1C[C@H]2[C@@H]3CCC4=CC(=O)C=C[C@]4(C)[C@@]3(F)[C@@H](O)C[C@]2(C)[C@@]1(O)C(=O)CO [Dexamethasone, dexamethasone]
  resistance in the assay, relapsed (treated) vs untreated patients (in words): significantly more resistant
